# Test results reported in paper PMC7819943, “Rice protein-binding microarrays: a tool to detect cis-acting elements near promoter regions in rice”.
# The other results are listed elsewhere or left out.
# Molecular target: T1, OsSMF1 (Oryza sativa, UniProt Q6ZLB0 1-436)
# T1 sequence: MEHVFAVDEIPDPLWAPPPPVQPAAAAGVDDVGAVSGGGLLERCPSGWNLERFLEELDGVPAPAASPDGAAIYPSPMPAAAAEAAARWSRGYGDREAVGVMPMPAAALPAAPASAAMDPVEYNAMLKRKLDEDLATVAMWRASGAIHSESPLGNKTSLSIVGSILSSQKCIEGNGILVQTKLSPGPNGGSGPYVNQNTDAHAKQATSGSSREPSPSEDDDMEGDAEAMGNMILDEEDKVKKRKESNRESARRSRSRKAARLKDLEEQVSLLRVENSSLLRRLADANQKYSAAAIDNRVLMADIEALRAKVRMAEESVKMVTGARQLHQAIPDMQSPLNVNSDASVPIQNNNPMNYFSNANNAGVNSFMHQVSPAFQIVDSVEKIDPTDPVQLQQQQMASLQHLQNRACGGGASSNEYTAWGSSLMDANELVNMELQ
# Experiment: protein-binding microarray (RPBM); PBS, 2% BSA, 51.3 ng/ul salmon testes DNA, 50 uM zinc acetate, 200 nM TF, 25 C, 1 h; high values mean tight binding
# Details: protein: recombinant; tags: N-terminal polyhistidine and DsRed monomer fusion (pET32a); chain copies: 2; label: CyDye5-dUTP incorporated in the synthesized complementary strand; 3' TTTTT single-stranded linker to array surface; dsDNA, one strand shown
# Summary of the method: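 Using Ni–NTA, transcription factors fused N-terminally to polyhistidine and DsRed were purified after expression in E. coli BL21-CodonPlus. These were incubated at 200 nM with a blocked, double-stranded custom Agilent array for 1 h at 25 °C in a buffer containing 50 µM zinc acetate, and the array was washed. The binding signal is per-feature fluorescence intensity (arbitrary units) on an Axon 4000B scanner.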
row,Sequence,binding signal
1,CAACGCACAGCAAATCGGGATGGACGTGTGTCGCCTGGGTCGGAGTCACCTAGTGCAG,3880 fluorescence intensity (a.u.)
2,GAGGACGGTGCCACCGTGGTGCGTCACAGCTGGTCGCTCGCGGAGTCACCTAGTGCAG,8180 fluorescence intensity (a.u.)
3,GTTTATGGAAACTATATTAGTGTTTTGGATTGGGAATGGGCGGAGTCACCTAGTGCAG,24900 fluorescence intensity (a.u.)
4,CACTTAACTATACTAATGCTCCACGTGGATACTTCTATTTCGGAGTCACCTAGTGCAG,11100 fluorescence intensity (a.u.)
5,TCACGTAGATGTGTCGATGGTCGTCCCGCGAGCTGACTTGCGGAGTCACCTAGTGCAG,3190 fluorescence intensity (a.u.)
6,TTCATCCTATCACATCAAATATTTGGATACATACATGGAGCGGAGTCACCTAGTGCAG,45500 fluorescence intensity (a.u.)
7,TTGATCATTAAATAAAAGTTACGAAAGTTCAATGATCATGCGGAGTCACCTAGTGCAG,3360 fluorescence intensity (a.u.)
8,GTCGCTGTCTACCACGGAGCCAAACCATCCACGTAGGAGACGGAGTCACCTAGTGCAG,6980 fluorescence intensity (a.u.)
9,CTTATCAAGACTCGTGGCGTGGAAAGCTTTACAGGTGAGGCGGAGTCACCTAGTGCAG,4710 fluorescence intensity (a.u.)
10,TTGTATTCATTTTAATGTAAACTAGTATACGTCATACACACGGAGTCACCTAGTGCAG,7480 fluorescence intensity (a.u.)
11,CTTCTACTGCTTTACGTGTCACTGCCTATAATAGTACTACCGGAGTCACCTAGTGCAG,5720 fluorescence intensity (a.u.)
12,TGTGTGCGTGTGTTGTGACTTATGATGTGTTTCTTAAGAACGGAGTCACCTAGTGCAG,4170 fluorescence intensity (a.u.)
13,GCTGAGTAGAGCTCGAGCATGACTGTACTGGTGAAGCTTGCGGAGTCACCTAGTGCAG,4940 fluorescence intensity (a.u.)
14,TATGGTAGATTATACTGTAGTTCGATGGGCACGTGTACCACGGAGTCACCTAGTGCAG,3900 fluorescence intensity (a.u.)
15,CGCCAAAACCTATGTGGCCCATCATCCGCCGGTCCGTGTGCGGAGTCACCTAGTGCAG,4010 fluorescence intensity (a.u.)
16,GAGCCGAGACTGAGAGAGAGATCGGCGCCGGCTGTGAACGCGGAGTCACCTAGTGCAG,48100 fluorescence intensity (a.u.)
17,CTCGCTGATGTCATTTCTTGCTTGACCATTTCTGACAGATCGGAGTCACCTAGTGCAG,8290 fluorescence intensity (a.u.)
18,GCCCAAGTAGATTTGGACTCTCGAATCCTAGTCGGATCCACGGAGTCACCTAGTGCAG,4720 fluorescence intensity (a.u.)
19,ATTGATTGACCGAGCGCACTACTCTTTATCTTTTCGATTGCGGAGTCACCTAGTGCAG,3410 fluorescence intensity (a.u.)
20,GAGAGAGTAGCTAGGAGGCTTTAATACACACGTCACACTGCGGAGTCACCTAGTGCAG,11900 fluorescence intensity (a.u.)
21,CTCACCTTGCCCCTTCACACTCGTCACTCGCTCCAACCAGCGGAGTCACCTAGTGCAG,4640 fluorescence intensity (a.u.)

# 2 successive entries out of the list so far:
row,Sequence,binding signal
2,GAGGACGGTGCCACCGTGGTGCGTCACAGCTGGTCGCTCGCGGAGTCACCTAGTGCAG,8180 fluorescence intensity (a.u.)
3,GTTTATGGAAACTATATTAGTGTTTTGGATTGGGAATGGGCGGAGTCACCTAGTGCAG,24900 fluorescence intensity (a.u.)

# Further entries.

row,Sequence,binding signal
1,TCTATGAGATGCGTGTGTATAGTAACTGATGTGGATCAGGCGGAGTCACCTAGTGCAG,3980 fluorescence intensity (a.u.)
2,GTCCATCCACTTTGCCCTGCCGACAAAATTCTCAGGTGGTCGGAGTCACCTAGTGCAG,16200 fluorescence intensity (a.u.)
3,CAGCTGGTGTTATCTTATCTAAGCCAATATGAGTAATCGCCGGAGTCACCTAGTGCAG,3200 fluorescence intensity (a.u.)
4,TTGGGTAGTTAACTAGAGCGTTAAACAAACCTTGCTGACGCGGAGTCACCTAGTGCAG,7600 fluorescence intensity (a.u.)
5,ACACACGTCGCCGCCACGTGTACGTGTCACGCTCACACCTCGGAGTCACCTAGTGCAG,22700 fluorescence intensity (a.u.)
6,GACCTTTTCGACCTGGGGAGGATGACAAGTCCAGTTCAGTCGGAGTCACCTAGTGCAG,3250 fluorescence intensity (a.u.)
7,TTCTGCTGCACACGCGTCCACCCGAGCCGAGAGCCCGAGACGGAGTCACCTAGTGCAG,3640 fluorescence intensity (a.u.)
8,AGAAGCGAGGTGACAGCCCAGCCATGGACGGCTAGGACGCCGGAGTCACCTAGTGCAG,3240 fluorescence intensity (a.u.)
9,TTAGTATGAAGTAAACACACCCTTATTGTACGTGGTAGAGCGGAGTCACCTAGTGCAG,4320 fluorescence intensity (a.u.)
10,CACAAGTTCTCCTACGCTGACTCCTCTCTTGGAACTTCAGCGGAGTCACCTAGTGCAG,5030 fluorescence intensity (a.u.)
11,AGTGTGGACCGCAATGGCAAGCCACGTTCACATCTCCGACCGGAGTCACCTAGTGCAG,4600 fluorescence intensity (a.u.)
12,TTAGGACCATAATATCTAATGTTACATGCCACGTACCAAACGGAGTCACCTAGTGCAG,7280 fluorescence intensity (a.u.)
13,CTGAAGCATTGTGTGTCATCGTTTTGATTATCATAGCTCACGGAGTCACCTAGTGCAG,5320 fluorescence intensity (a.u.)
14,CCCGTCTCGTTCAGTTTCATATCAACCTCACGTCATGCCCCGGAGTCACCTAGTGCAG,4320 fluorescence intensity (a.u.)
15,CAAAGCCCACAGAGTCTCACGTCACTGTAACTTCACTCACCGGAGTCACCTAGTGCAG,4970 fluorescence intensity (a.u.)
16,CTAGAACATAATTACTATATGTATGACTCCGACCTGCACACGGAGTCACCTAGTGCAG,3370 fluorescence intensity (a.u.)
17,CAATCCCCTAGCCTCGCCACCCGCCACGTGTCGTCCCGCGCGGAGTCACCTAGTGCAG,13500 fluorescence intensity (a.u.)
18,TCTGATTTGTTGGTGATGTGTTGCTGTACTTCTTGTTCTGCGGAGTCACCTAGTGCAG,3400 fluorescence intensity (a.u.)
19,ATGAAATGTTTGTCATTTCTGGTGGGGCTGTTAGTTAATTCGGAGTCACCTAGTGCAG,4040 fluorescence intensity (a.u.)
20,CAGCACGCCACCGGCGATGTCGGCCACGTTCAAACTTCACCGGAGTCACCTAGTGCAG,3590 fluorescence intensity (a.u.)
21,AAAGAAATGTTCCAATACCAGAGTCACCGTGACACCAATGCGGAGTCACCTAGTGCAG,3310 fluorescence intensity (a.u.)
